Reference: PubChem BioAssay AID2685 (National Center for Advancing Translational Sciences (NCATS), 2010)
The list shows a part of the results. The main result of the screen is listed elsewhere. These columns were measured beside it and carry no call. Most of these compounds were active or inconclusive in the main read-out, so they are no random draw. Potencies come from curve fits of mixed quality, noted in brackets.

Test: qHTS Assay for Lipid Storage Modulators in Drosophila S3 Cells;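 for cell number change: cells counted by Cell Tracker Red CMTPX staining in the red channel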
Settings: BODIPY lipid droplet fluorescence, 18-24 h; for cell number change: measured here: cell count max response, cells fed with added oleic acid
Outline: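 Drosophila S3 cells got compounds at several concentrations plus oleic acid (400 uM solution). Laser-scanning cytometry with 488 nm excitation read lipid droplets at 500-530 nm and cells at 575-640 nm. Percent activity was relative to 20 uM Triacsin C.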

[1] = measured here: lipid fluorescence (Fed channel) AC50, cells fed with added oleic acid
[2] = measured here: cell number channel AC50, cells fed with added oleic acid

Structure (SMILES) | cell number change [%] | AC50 [1] | AC50 [2]
O=C(CNC(=O)C1CC(=O)N(c2cccc3ccccc23)C1)Nc1ccccc1Br (configuration not stated) | -1.2 | – | –
COc1cccc(C(=O)COc2ccc(NC(=O)c3ccccc3)cc2)c1 | -22.4 | 2.91 µM [falling, partial curve] | –
COc1ccc(O)c(C(=O)c2cc(C(=O)NCCc3ccccc3)c(=O)n(CCc3ccccc3)c2)c1 | – | – | 0.411 µM [falling, full curve, poor fit]
COC(=O)c1ccc(C2=NOC(C)(c3sc(-c4ccccc4)nc3C)C2)cc1 (configuration not stated) | 18.5 | 11.6 µM [rising, partial curve] | –
COc1ccc(S(=O)(=O)N2CCNCC2)cc1 | -9.47 | – | –
CCN1CCN(C(=O)CN2C(=O)COc3ccc(C)cc32)CC1 | 12.8 | 5.17 µM [falling, single point] | –
COc1cc(-c2nc(N)n[nH]2)cc(OC)c1OC | 28 | – | –
Cc1ccc(-c2ccc(/C=N/NC(=O)CN3CCOCC3)o2)cc1[N+](=O)[O-] | -0.993 | – | –
Cc1csc(NC(=O)CSc2nc(=O)[nH]c3c2CCCC3)n1 | -30.1 | – | 14.6 µM [falling, partial curve, poor fit]
CCCCCn1c(=O)[nH]c2cc(C(=O)O)ccc2c1=O | -192 | 29.1 µM [falling, single point] | 2.06 µM [falling, partial curve]
CC(C)N=C(N)N=C(N)Nc1ccc(Cl)cc1 | 36.2 | 11.6 µM [rising, partial curve] | 13 µM [rising, partial curve, poor fit]
COc1cc2c(C)nc(C)c(C#N)c2cc1OC | – | – | 6.51 µM [rising, single point]
CC(=O)Nc1ccc(-n2nnnc2SCC(=O)NCc2cccs2)cc1 | 3.7 | – | 0.00461 µM [rising, full curve, poor fit]
Cc1ccc(S(=O)(=O)N2Cc3ccccc3CC2C(=O)Nc2ccc3c(c2)OCO3)cc1 (configuration not stated) | 60.7 | 3.26 µM [falling, single point] | 5.17 µM [rising, full curve]
CSc1ccccc1-c1nnc(NC(=O)Cc2ccccc2)o1 | 9.88 | 6.51 µM [rising, single point] | –
Cc1ccc(C(CCN)c2ccco2)cc1 (configuration not stated) | 0.156 | 0.184 µM [falling, full curve] | –
COc1ccc(/C=N/NC(=O)CN(C2=NS(=O)(=O)c3ccccc32)c2ccccc2)cc1 | -49.8 | 0.461 µM [falling, full curve, poor fit] | 13 µM [falling, partial curve]
O=C(CSc1nccn1-c1cccc(Cl)c1)NC1CCCC1 | -20.5 | 29.1 µM [rising, single point] | –
O=C(NCCO)C(F)(F)C(F)(F)C(F)(F)OC(F)(C(=O)NCCO)C(F)(F)F (configuration not stated) | 1.19 | 29.1 µM [rising, single point] | –
COc1ccc(S(=O)(=O)N2CCOCC2)cc1C(=O)Nc1ccon1 | – | 29.1 µM [falling, single point] | –
COCCn1c(C)cc(C(=O)COC(=O)c2ccc([N+](=O)[O-])o2)c1C | -3.83 | – | –

Molecules listed so far that contain an aryl thioether with sulfur outside any ring (four):
Structure (SMILES) | cell number change [%] | AC50 [1] | AC50 [2]
Cc1csc(NC(=O)CSc2nc(=O)[nH]c3c2CCCC3)n1 | -30.1 | – | 14.6 µM [falling, partial curve, poor fit]
CC(=O)Nc1ccc(-n2nnnc2SCC(=O)NCc2cccs2)cc1 | 3.7 | – | 0.00461 µM [rising, full curve, poor fit]
CSc1ccccc1-c1nnc(NC(=O)Cc2ccccc2)o1 | 9.88 | 6.51 µM [rising, single point] | –
O=C(CSc1nccn1-c1cccc(Cl)c1)NC1CCCC1 | -20.5 | 29.1 µM [rising, single point] | –

Going on with the list.

Structure (SMILES) | cell number change [%] | AC50 [1] | AC50 [2]
COC(=O)C(NC(C)=O)(Nc1nc2c(s1)CCCC2)C(F)(F)F (configuration not stated) | 0.571 | 6.51 µM [falling, partial curve] | –
COc1ccccc1C(=O)NC(=O)COC(=O)c1ncc(Cl)c(Cl)c1Cl | -43.7 | – | 29.1 µM [falling, single point]
CC(C)N(C(=O)COC(=O)c1ccc(Cl)nc1)C(C)C | -27.2 | 1.46 µM [falling, full curve] | –
Cc1ccc(-c2nn3c(C)nnc3c3ccccc23)cc1S(=O)(=O)NCc1ccco1 | -23.5 | – | 0.00411 µM [falling, full curve, poor fit]
Clc1cccc(-c2ccnc3nc(-n4cccc4)nn23)c1 | -46.3 | 0.206 µM [rising, full curve, poor fit] | –
COc1ccccc1N(CC(=O)Nc1ccccc1C(=O)N1CCCC1)S(C)(=O)=O | – | 16.4 µM [falling, partial curve] | –
CCC(Cc1ccccc1)NC(=O)c1cc(S(=O)(=O)N2CCCCC2)c[nH]1 (configuration not stated) | 12.3 | 18.4 µM [falling, single point] | –
Cc1ccccc1C(=O)c1cccn1CC(=O)N1CCCCC1 | -2.31 | – | 0.651 µM [rising, full curve, poor fit]
Cc1cccc2cc(C#N)c(SCc3nnc(-c4ccccc4[N+](=O)[O-])o3)nc12 | 9.56 | 0.291 µM [rising, full curve, poor fit] | –
Cc1cc(C)cc(C(=O)N2CC(=O)Nc3ccccc32)c1 | 19.6 | – | –
CCN(CC)S(=O)(=O)c1ccc(N(C)Cc2cccnc2)nc1 | – | 29.1 µM [rising, single point] | 4.61 µM [rising, partial curve]
Cc1c(C(=O)OCC(=O)c2c(N)n(CC(C)C)c(=O)n(C)c2=O)oc2ccccc12 | -24.5 | 23.1 µM [falling, single point] | –
Oc1ccccc1CNc1nc2ccccc2n1CCN1CCCCC1 | – | 16.4 µM [rising, partial curve] | –
Nn1c(SCC(=O)NC(=O)NCc2ccco2)nnc1-c1ccc(OC(F)F)cc1 | -1.24 | 1.64 µM [falling, partial curve] | –
N#CC1C(=O)NC(N2CCN(c3ccccc3)CC2)=NC12CCCCC2 (configuration not stated) | -4.63 | – | –
O=C(COC(=O)Cc1ccsc1)Nc1ccccc1 | -8.82 | 1.46 µM [falling, partial curve, poor fit] | 1.16 µM [falling, partial curve, poor fit]
COC(=O)c1cc(CN2CCN(c3ccccc3)CC2)ccc1O | 15 | 29.1 µM [rising, single point] | –
CC(C)Oc1cccc(C(=O)C2CCCN(C(=O)CCn3cnnn3)C2)c1 (configuration not stated) | 14.4 | – | –
O=C(NCCCN1CCOCC1)c1ccc(Cl)s1 | -19.5 | 0.146 µM [falling, full curve, poor fit] | 0.0517 µM [falling, full curve, poor fit]
CC1CC(C)(C)N(C(=O)CN2C(=O)CCC2=O)c2ccccc21 (configuration not stated) | 34.9 | – | 10.3 µM [rising, single point]
COc1ccc(C2=NOC(C(=O)Nc3cc(Br)ccc3O)C2)cc1OC (configuration not stated) | -60.7 | 0.0082 µM [falling, full curve, poor fit] | 25.9 µM [falling, partial curve]

Structure (SMILES) | cell number change [%] | AC50 [1] | AC50 [2]
CCc1noc(C)c1C(=O)N1CCCC1 | -20.2 | 1.3 µM [falling, full curve] | –
Cc1ccc(S(=O)(=O)Oc2ccc3ccc(O)cc3c2)cc1 | -2.64 | – | –
COc1ccccc1NC(=O)Nc1nn(C)c2cccc(N(C)C)c12 | -0.725 | 2.91 µM [rising, single point] | –
C/C(CC(=O)Nc1ccc(N(C)C)cc1)=N\NC(=O)c1ccc(Cl)cc1Cl | 19.3 | 0.58 µM [falling, single point] | –
Cc1ccc(S(=O)(=O)NC(C)(C)CN2CCCCC2)cc1 | 10.6 | 4.11 µM [rising, single point] | –
O=C(CSc1nc2cc(Cl)ccc2o1)N1CCOCC1 | -66.8 | 23.1 µM [falling, partial curve] | 25.9 µM [falling, partial curve, poor fit]
COc1ccc(CN2CCC(C(=O)NCCc3ccc(OC)c(OC)c3)CC2)c(OC)c1 | 10.7 | – | –
Cc1nonc1CC(=O)NC1CCCc2c1cnn2-c1ccc(F)cc1F (configuration not stated) | -37.1 | 0.13 µM [rising, full curve, poor fit] | 29.1 µM [falling, single point]
CC(=O)N1c2ccc(S(=O)(=O)N3CCC(C(=O)Nc4cccc(Cl)c4)CC3)cc2CC1C (configuration not stated) | -39.9 | 0.326 µM [falling, partial curve] | 0.366 µM [falling, partial curve, poor fit]
CCOC(=O)/C=C/C(=O)OCC(=O)Nc1c(Cl)cccc1Cl | -52.3 | 5.8 µM [falling, full curve] | 4.61 µM [falling, full curve]
COc1ccc(CC(=O)OCC(=O)NC2CCCCC2)cc1 | 9.02 | 6.51 µM [rising, single point] | –
Cc1cc(=O)oc2cc(NC(=O)COc3cccc(C(F)(F)F)c3)ccc12 | -10.9 | 10.3 µM [falling, partial curve] | –
CC(=O)C1=C(NC(=O)c2ccc(C(F)(F)F)cc2)C[C@@H]2[C@H]1C2(C)C | 11.8 | 5.8 µM [rising, partial curve] | –
Cc1ccc(NC(=O)COc2nsnc2N2CCOCC2)cc1Cl | -30.5 | 29.1 µM [falling, single point] | –
COCCN(C(=O)c1cc2c(s1)CCC2)c1c(N)n(CC(C)C)c(=O)[nH]c1=O | -7.43 | – | –
Cc1cc(=O)oc2c(C(=O)/C=C\c3cccs3)c(O)ccc12 | -13.5 | – | –
O=C(O)CC(=O)Nc1ccccc1 | -25.4 | 0.461 µM [falling, full curve] | 0.291 µM [falling, full curve]
COc1ccc(CNC(=O)COC(=O)[C@H](Cc2c[nH]c3ccccc23)NC(=O)c2cccs2)cc1 | 1.47 | 3.66 µM [rising, partial curve] | –
O=C(C1COc2ccccc2O1)N1CCN(c2ccccc2F)CC1 (configuration not stated) | -5.69 | 4.61 µM [rising, partial curve] | –
